Assays:
[1] = tested on: patient whole blood specimens; assay: Efficacy of d,1-GA in patient specimens: initial glucose vs glucose after 8 hours incubation; format: cell-based, human; conditions: 10 mmol/L d,1-GA, FIG. 3
Description: Results are presented by plotting initial glucose concentration against glucose concentrations either in the presence or absence of d,1-GA (FIG. 3).

[2] = Interference in common clinical chemical tests, Dade Behring RxL analyzer; design: species or system human; conditions: 10 mmol/L d,1-GA or 5 mmol/L 1-GA, mean; for Creatinine: Dade Behring RxL (alkaline picrate method); for AST / Albumin / Alk Phos / Bilirubin / Calcium / Chloride / Potassium / Protein / Sodium / Total CO2 / Urea / Glucose: Dade Behring RxL; for Glucose: plasma, six diabetic patients
[3] = Interference in common clinical chemical tests, Hitachi 747 analyzer; design: species or system human; conditions: 10 mmol/L d,1-GA or 5 mmol/L 1-GA, mean; for Creatinine: Hitachi 747 (enzymatic method); for AST / Albumin / Alk Phos / Bilirubin / Calcium / Chloride / Potassium / Protein / Sodium / Total CO2 / Urea / Glucose: Hitachi 747; for Glucose: plasma, six diabetic patients
[4] = Interference in common clinical chemical tests, Ortho-Clinical Diagnostics Vitros 250 analyzer; design: species or system human; conditions: 10 mmol/L d,1-GA or 5 mmol/L 1-GA, mean; for Creatinine: Vitros 250 (enzymatic method); for AST / Albumin / Alk Phos / Bilirubin / Calcium / Chloride / Potassium / Protein / Sodium / Total CO2 / Urea / Glucose: Vitros 250; for Glucose: plasma, six diabetic patients

O=CC(O)CO (centres unmarked) [d,1-GA, d,1-glyceraldehyde]
slope, initial glucose vs glucose after 8 hours ([1]; linear regression): 1.01 | intercept, initial glucose vs glucose after 8 hours ([1]; without additive −2.2 mmol/L): 0.3 mmol/L | Creatinine [2]: 327 µmol/L | AST [2]: 23 U/L | Albumin [2]: 37 g/L | Alk Phos [2]: 76 U/L | Bilirubin [2]: 8.6 µmol/L | Calcium [2]: 2.2 µmol/L | Chloride [2]: 105 mmol/L | Potassium [2]: 4.5 mmol/L | Protein [2]: 65 g/L | Sodium [2]: 140 mmol/L | Total CO2 [2]: 24 mmol/L | Urea [2]: 5.4 µmol/L | Glucose [2]: 10.5 mmol/L | Creatinine [3]: 80 µmol/L | AST [3]: 25 U/L | Albumin [3]: 36 g/L | Alk Phos [3]: 83 U/L | Bilirubin [3]: 6.8 µmol/L | Calcium [3]: 2.1 µmol/L | Chloride [3]: 105 mmol/L | Potassium [3]: 4.6 mmol/L | Protein [3]: 63 g/L | Sodium [3]: 139 mmol/L | Total CO2 [3]: 25 mmol/L | Urea [3]: 5.7 µmol/L | Glucose [3]: 10.5 mmol/L | Creatinine [4]: 71 µmol/L | AST [4]: 33 U/L | Albumin [4]: 38 g/L | Alk Phos [4]: 76 U/L | Bilirubin [4]: 15.4 µmol/L | Calcium [4]: 2.1 µmol/L | Chloride [4]: 110 mmol/L | Potassium [4]: 4.6 mmol/L | Protein [4]: 65 g/L | Sodium [4]: 142 mmol/L | Total CO2 [4]: 25 mmol/L | Urea [4]: 6.4 µmol/L | Glucose [4]: 10.9 mmol/L

O=C[C@@H](O)CO [1-GA, 1-glyceraldehyde]
Creatinine [2]: 194 µmol/L | AST [2]: 26 U/L | Albumin [2]: 37 g/L | Alk Phos [2]: 76 U/L | Bilirubin [2]: 6.8 µmol/L | Calcium [2]: 2.2 µmol/L | Chloride [2]: 105 mmol/L | Potassium [2]: 4.5 mmol/L | Protein [2]: 66 g/L | Sodium [2]: 140 mmol/L | Total CO2 [2]: 24 mmol/L | Urea [2]: 5.4 µmol/L | Glucose [2]: 10.6 mmol/L | Creatinine [3]: 88 µmol/L | AST [3]: 29 U/L | Albumin [3]: 37 g/L | Alk Phos [3]: 84 U/L | Bilirubin [3]: 6.8 µmol/L | Calcium [3]: 2.1 µmol/L | Chloride [3]: 105 mmol/L | Potassium [3]: 4.6 mmol/L | Protein [3]: 63 g/L | Sodium [3]: 139 mmol/L | Total CO2 [3]: 26 mmol/L | Urea [3]: 5.7 µmol/L | Glucose [3]: 10.5 mmol/L | Creatinine [4]: 80 µmol/L | AST [4]: 35 U/L | Albumin [4]: 38 g/L | Alk Phos [4]: 77 U/L | Bilirubin [4]: 15.4 µmol/L | Calcium [4]: 2.2 µmol/L | Chloride [4]: 109 mmol/L | Potassium [4]: 4.6 mmol/L | Protein [4]: 66 g/L | Sodium [4]: 143 mmol/L | Total CO2 [4]: 25 mmol/L | Urea [4]: 6.4 µmol/L | Glucose [4]: 10.9 mmol/L

Reference: patent publication US6632844B1, “Methods and compositions for preserving glucose level in blood specimens” (Washington University, priority 2000, dated 2003)
